Source: US11065203B2, “Liposomal compositions and uses of same” (Technion Research & Development Foundation Limited, priority 2009, dated 2021)

Assay: Proteomics analysis (trypsin digest, LC-MS/MS) of hMSC ghosts and derived CDLs, conditioned or unconditioned by PC3 medium
Design: species or system human
Conditions: LC-MS/MS peak area per protein; for Ratio of expression Cond. CDLs/Cond. Ghosts: CDLs derived from conditioned hMSCs versus conditioned ghosts; for Ratio of expression Cond Ghosts/Ghosts: hMSC ghosts conditioned by PC3 medium versus unconditioned ghosts

Q9Y490
Ratio of expression Cond. CDLs/Cond. Ghosts: 5%
Ratio of expression Cond Ghosts/Ghosts: 34%

Q99653
Ratio of expression Cond. CDLs/Cond. Ghosts: 3%
Ratio of expression Cond Ghosts/Ghosts: 100%

O96008
Ratio of expression Cond. CDLs/Cond. Ghosts: 3%
Ratio of expression Cond Ghosts/Ghosts: 100%

P35749
Ratio of expression Cond. CDLs/Cond. Ghosts: 0%
Ratio of expression Cond Ghosts/Ghosts: 100%

P09493
Ratio of expression Cond. CDLs/Cond. Ghosts: 27%
Ratio of expression Cond Ghosts/Ghosts: 66%

P49368
Ratio of expression Cond. CDLs/Cond. Ghosts: 11%
Ratio of expression Cond Ghosts/Ghosts: 100%

P15311
Ratio of expression Cond. CDLs/Cond. Ghosts: 3%
Ratio of expression Cond Ghosts/Ghosts: 100%

P09382
Ratio of expression Cond. CDLs/Cond. Ghosts: 28%
Ratio of expression Cond Ghosts/Ghosts: 45%

Q8NBS9
Ratio of expression Cond. CDLs/Cond. Ghosts: 3%
Ratio of expression Cond Ghosts/Ghosts: 100%

Q9ULV4
Ratio of expression Cond. CDLs/Cond. Ghosts: 3%
Ratio of expression Cond Ghosts/Ghosts: 131%

P06748
Ratio of expression Cond. CDLs/Cond. Ghosts: 9%
Ratio of expression Cond Ghosts/Ghosts: 100%

P62820
Ratio of expression Cond. CDLs/Cond. Ghosts: 5%
Ratio of expression Cond Ghosts/Ghosts: 100%

O14880
Ratio of expression Cond. CDLs/Cond. Ghosts: 2%
Ratio of expression Cond Ghosts/Ghosts: 100%

P21333
Ratio of expression Cond. CDLs/Cond. Ghosts: 6%
Ratio of expression Cond Ghosts/Ghosts: 100%

O95831
Ratio of expression Cond. CDLs/Cond. Ghosts: 4%
Ratio of expression Cond Ghosts/Ghosts: 176%

P35222
Ratio of expression Cond. CDLs/Cond. Ghosts: 6%
Ratio of expression Cond Ghosts/Ghosts: 100%

P55809
Ratio of expression Cond. CDLs/Cond. Ghosts: 2%
Ratio of expression Cond Ghosts/Ghosts: 100%

O00264
Ratio of expression Cond. CDLs/Cond. Ghosts: 6%
Ratio of expression Cond Ghosts/Ghosts: 100%

Q99714
Ratio of expression Cond. CDLs/Cond. Ghosts: 2%
Ratio of expression Cond Ghosts/Ghosts: 100%

P46940
Ratio of expression Cond. CDLs/Cond. Ghosts: 1%
Ratio of expression Cond Ghosts/Ghosts: 133%

P08962
Ratio of expression Cond. CDLs/Cond. Ghosts: 25%
Ratio of expression Cond Ghosts/Ghosts: 100%

Q12905
Ratio of expression Cond. CDLs/Cond. Ghosts: 4%
Ratio of expression Cond Ghosts/Ghosts: 100%

P54709
Ratio of expression Cond. CDLs/Cond. Ghosts: 3%
Ratio of expression Cond Ghosts/Ghosts: 100%

Q12884
Ratio of expression Cond. CDLs/Cond. Ghosts: 3%
Ratio of expression Cond Ghosts/Ghosts: 100%

P23528
Ratio of expression Cond. CDLs/Cond. Ghosts: 12%
Ratio of expression Cond Ghosts/Ghosts: 100%

Q9UBI6
Ratio of expression Cond. CDLs/Cond. Ghosts: 8%
Ratio of expression Cond Ghosts/Ghosts: 100%

Q9H0U4
Ratio of expression Cond. CDLs/Cond. Ghosts: 1%
Ratio of expression Cond Ghosts/Ghosts: 161%

Q96AY3
Ratio of expression Cond. CDLs/Cond. Ghosts: 1%
Ratio of expression Cond Ghosts/Ghosts: 100%

Q13813
Ratio of expression Cond. CDLs/Cond. Ghosts: 5%
Ratio of expression Cond Ghosts/Ghosts: 100%

P53597
Ratio of expression Cond. CDLs/Cond. Ghosts: 3%
Ratio of expression Cond Ghosts/Ghosts: 100%

Q9NYU2
Ratio of expression Cond. CDLs/Cond. Ghosts: 1%
Ratio of expression Cond Ghosts/Ghosts: 140%

P00367
Ratio of expression Cond. CDLs/Cond. Ghosts: 7%
Ratio of expression Cond Ghosts/Ghosts: 100%

P07996
Ratio of expression Cond. CDLs/Cond. Ghosts: 2%
Ratio of expression Cond Ghosts/Ghosts: 129%

O00571
Ratio of expression Cond. CDLs/Cond. Ghosts: 7%
Ratio of expression Cond Ghosts/Ghosts: 100%

Q53EP0
Ratio of expression Cond. CDLs/Cond. Ghosts: 2%
Ratio of expression Cond Ghosts/Ghosts: 302%

P62937
Ratio of expression Cond. CDLs/Cond. Ghosts: 9%
Ratio of expression Cond Ghosts/Ghosts: 54%
